Source: PubChem BioAssay AID330 (DTP/NCI, 2004)
The list shows only some results of the screen, not a fair sample: it is rich in T/C values a quarter to a half above the control, in often repeated tests (any T/C) and in doses without a T/C. Other doses and runs of a compound stand elsewhere. T/C is the treated group as % of the vehicle group. Some doses have a count of surviving animals in place of a T/C: the source files T/C as zero there, which appears to mark a toxic dose or a test without result, not a measured value. Some doses without a T/C left all or most animals alive at the check, yet need not have been tolerated: survival well below the control is almost never listed, so the zero probably covers shortened survival too. Counts of survivors are from the toxicity check (mostly the fifth day) where no day follows; animals may have died later. Schedule codes are those of the source, taken here to give the interval after Q, in days (D) or hours (H), and the number of doses after X. Some entries hold several experiments; the values are given in rising order. Some molecules as drawn cover several salts, stereoisomers or complexes of the source; a dose is that of the sample tested. For survival time, this PubChem deposit counts one and a half times the control or more as active, and values a quarter to a half above the control carry no call in these data; other NCI protocols may use other cut-offs. Some T/C values carry the count of animals alive at the toxicity check (mostly the fifth day); without a count, all were alive then.

System: P388 leukemia ip, CD2F1 mice, survival T/C
Test: NCI In Vivo Anticancer Drug Screen. Data for tumor model P388 Leukemia (intraperitoneal) in CD2F1 (CDF1) mice
Conditions: T/C endpoint: median survival time, higher T/C = longer survival
[1] = dose: 400.0 mg/kg/injection, schedule: Q01DX001 (ip), vehicle: saline
[2] = dose: 100.0 mg/kg/injection, schedule: Q01DX009 (ip), vehicle: saline with Tween-80
[3] = dose: 200.0 mg/kg/injection, schedule: Q01DX005 (ip), vehicle: saline with Tween-80
[4] = dose: 25.0 mg/kg/injection, schedule: Q01DX009 (ip), vehicle: Klucel (hydroxypropylcellulose) (HPC)
[5] = dose: 50.0 mg/kg/injection, schedule: Q01DX009 (ip), vehicle: Klucel (hydroxypropylcellulose) (HPC)
[6] = dose: 100.0 mg/kg/injection, schedule: Q01DX009 (ip), vehicle: Klucel (hydroxypropylcellulose) (HPC)
[7] = dose: 200.0 mg/kg/injection, schedule: Q01DX009 (ip), vehicle: Klucel (hydroxypropylcellulose) (HPC)
[8] = dose: 120.0 mg/kg/injection, schedule: Q01DX005 (ip), vehicle: Klucel (hydroxypropylcellulose) (HPC)
[9] = dose: 200.0 mg/kg/injection, schedule: Q01DX005 (ip), vehicle: Klucel (hydroxypropylcellulose) (HPC)
[10] = dose: 240.0 mg/kg/injection, schedule: Q01DX005 (ip), vehicle: Klucel (hydroxypropylcellulose) (HPC)

Cn1c(=O)c2c(nc(CF)n2C)n(C)c1=O was tested, and the survivor count [1] was 0 of 6.

O=C(OC1(c2nccc3ccccc23)CCN(Cc2ccccc2)CC1)c1ccccc1 was tested, and the survivor count [2] was 6 of 6 and the survivor count (dose: 200.0 mg/kg/injection, schedule: Q01DX009 (ip), vehicle: saline with Tween-80) was 6 of 6.

In the case of N#CN(Cc1ccccc1)C(c1ccccc1)(c1ccccc1)c1ccccc1.[I][Sn]([c]1ccccc1)([c]1ccccc1)[c]1ccccc1, the survivor count (dose: 12.5 mg/kg/injection, schedule: Q01DX005 (ip), vehicle: saline with Tween-80) is reported as 3 of 6, the survivor count (dose: 50.0 mg/kg/injection, schedule: Q01DX005 (ip), vehicle: saline with Tween-80) is reported as 0 of 6 and the survivor count (dose: 100.0 mg/kg/injection, schedule: Q01DX005 (ip), vehicle: saline with Tween-80) is reported as 0 of 6. The survivor count [3] was 0 of 6.

O=C1OC(=O)[C@H]2[C@@H]1[C@H]1C=C[C@@H]2OC1=O was tested, and the T/C (dose: 100.0 mg/kg/injection, schedule: Q01DX009 (ip), vehicle: saline) was 135 % of control.

For CC(=O)Nc1ccc2c(c1)/C(=C/c1ccc(N(C)C)cc1)c1ccccc1-2, the survivor count [4] was 6 of 6, the survivor count [5] was 6 of 6 and the survivor count [6] was 6 of 6. For the same molecule, the survivor count [7] was 6 of 6.

For CC(=O)Nc1ccc(Nc2nc(Cl)nc(Nc3ccc(NC(C)=O)cc3)n2)cc1, the survivor count [8] was 6 of 6.

For COc1cc(-c2cc(O)c(-c3ccc4ccccc4n3)c(=O)[nH]2)cc(OC)c1OC, the survivor count (dose: 15.0 mg/kg/injection, schedule: Q01DX005 (ip), vehicle: saline with Tween-80) was 6 of 6, the survivor count (dose: 30.0 mg/kg/injection, schedule: Q01DX005 (ip), vehicle: saline with Tween-80) was 6 of 6 and the survivor count (dose: 60.0 mg/kg/injection, schedule: Q01DX005 (ip), vehicle: saline with Tween-80) was 6 of 6.

In the case of Nc1nnn(CCCl)n1, the survivor count (dose: 400.0 mg/kg/injection, schedule: Q01DX001 (ip), vehicle: Klucel (hydroxypropylcellulose) (HPC)) is reported as 3 of 6.

In the case of CN(C)CCCNC(=O)NCCCCCCNC(=O)NCCCN(C)C, the survivor count [3] is reported as 5 of 5.

For O=C1NC2(CCCC2)C(=O)N1CCCN(CCCl)CCCl, the T/C (dose: 1.5 mg/kg/injection, schedule: Q01DX005 (ip), vehicle: saline) was 141 % of control and the survivor count (dose: 24.0 mg/kg/injection, schedule: Q01DX005 (ip), vehicle: saline) was 4 of 6 and 6 of 6.

In the case of O=CNNC(=S)Nc1ccccc1, the survivor count (dose: 400.0 mg/kg/injection, schedule: Q01DX009 (ip), vehicle: saline with Tween-80) is reported as 2 of 6.

CCCCNc1ccc(-c2c(N)nc(N)nc2CC)cc1[N+](=O)[O-] was tested, and the T/C (dose: 120.0 mg/kg/injection, schedule: Q01DX005 (ip), vehicle: saline with Tween-80) was 146 % of control and the T/C (dose: 240.0 mg/kg/injection, schedule: Q01DX005 (ip), vehicle: saline with Tween-80) was 126 % of control.

In the case of C1CCC2C(C1)CC[N-]C2CCC1[N-]CCC2CCCCC21.C1CCC2C(C1)CC[N-]C2CCC1[N-]CCC2CCCCC21.[Ni+2].[O-][Cl+3]([O-])([O-])O (stereo unspecified), the T/C (dose: 200.0 mg/kg/injection, schedule: Q01DX001 (ip), vehicle: saline) is reported as 128 % of control [4 of 6 alive] and the survivor count [1] is reported as 0 of 6.

For CCSc1ncc(Br)c(Sc2nc(N)nc3nc[nH]c23)n1, the T/C (dose: 8.0 mg/kg/injection, schedule: Q04DX003 (ip), vehicle: saline with Tween-80) was 127 % of control, the T/C (dose: 12.5 mg/kg/injection, schedule: Q01DX009 (ip), vehicle: saline with Tween-80) was 127 % of control and the T/C (dose: 16.0 mg/kg/injection, schedule: Q04DX003 (ip), vehicle: saline with Tween-80) was 145 % of control. The T/C (dose: 25.0 mg/kg/injection, schedule: Q01DX009 (ip), vehicle: saline with Tween-80) was 140 % of control, the T/C (dose: 37.5 mg/kg/injection, schedule: Q04DX003 (ip), vehicle: saline with Tween-80) was 140 % of control and the survivor count (dose: 50.0 mg/kg/injection, schedule: Q01DX009 (ip), vehicle: saline with Tween-80) was 6 of 6. The T/C (dose: 50.0 mg/kg/injection, schedule: Q04DX003 (ip), vehicle: saline with Tween-80) was 145 % of control and the survivor count [2] was 6 of 6.

For C/C(=N\NC(=S)N1CCCCCC1)c1cc2ccccc2cn1, the survivor count (dose: 50.0 mg/kg/injection, schedule: Q01DX005 (ip), vehicle: Klucel (hydroxypropylcellulose) (HPC)) was 6 of 6, the survivor count (dose: 100.0 mg/kg/injection, schedule: Q01DX005 (ip), vehicle: Klucel (hydroxypropylcellulose) (HPC)) was 6 of 6 and the survivor count [9] was 5 of 6.

In the case of COc1cccc2c1C(=O)c1c(O)c3c(c(O)c1C2=O)C[C@@](O)(C(=O)CO)C[C@@H]3OC1CC(NC(=O)C(N)CC(C)C)C(O)C(C)O1 (stereo partly specified), the T/C (dose: 3.12 mg/kg/injection, schedule: Q04DX003 (ip), vehicle: saline) is reported as 135 % of control, the T/C (dose: 6.25 mg/kg/injection, schedule: Q04DX003 (ip), vehicle: saline) is reported as 125 % of control and the T/C (dose: 12.5 mg/kg/injection, schedule: Q04DX003 (ip), vehicle: saline) is reported as 127 and 137 % of control. The T/C (dose: 25.0 mg/kg/injection, schedule: Q04DX003 (ip), vehicle: saline) was 147 % of control and the T/C (dose: 50.0 mg/kg/injection, schedule: Q04DX003 (ip), vehicle: saline) was 131 and 141 % of control.

For O=c1oc2ccccc2cc1Cc1cc2ccccc2oc1=O, the survivor count [7] was 0 of 6.

For CCCN(CCC)C1=CC(=O)C(N(CCC)CCC)=CC1=O, the survivor count [9] was 0 of 5.

CC[N+](C)(CC)CCOc1ccc(OCC[N+](C)(CC)CC)c2c1C(=O)c1ccccc1C2=O was tested, and the survivor count (dose: 6.25 mg/kg/injection, schedule: Q01DX005 (ip), vehicle: saline) was 0 of 5, the survivor count (dose: 12.5 mg/kg/injection, schedule: Q01DX005 (ip), vehicle: saline) was 0 of 5 and the survivor count (dose: 25.0 mg/kg/injection, schedule: Q01DX005 (ip), vehicle: saline) was 0 of 5. The survivor count (dose: 50.0 mg/kg/injection, schedule: Q01DX005 (ip), vehicle: saline) was 0 of 5, the survivor count (dose: 100.0 mg/kg/injection, schedule: Q01DX005 (ip), vehicle: saline) was 0 of 5 and the survivor count (dose: 200.0 mg/kg/injection, schedule: Q01DX005 (ip), vehicle: saline) was 0 of 5.

For Cc1cccc(Cl)c1NC1=NCCN1C(=O)CC(=O)c1ccccc1, the survivor count (dose: 6.25 mg/kg/injection, schedule: Q01DX009 (ip), vehicle: Klucel (hydroxypropylcellulose) (HPC)) was 3 of 6, the survivor count [4] was 4 of 6 and the survivor count [5] was 2 of 6. For the same molecule, the survivor count [6] was 2 of 6 and the survivor count [7] was 1 of 6.

With Nc1[nH]c(=S)[nH]c(=O)c1NS(=O)(=O)c1ccc([N+](=O)[O-])cc1 the T/C (dose: 60.0 mg/kg/injection, schedule: Q01DX005 (ip), vehicle: Klucel (hydroxypropylcellulose) (HPC)) was 141 % of control, the T/C [8] was 143 % of control and the T/C [10] was 142 % of control. The survivor count [10] was 5 of 6.

In the case of O=C(O)c1ccc2c3c(ncnc13)-c1ccccc1C2=O, the T/C [4] is reported as 125 % of control.

In the case of CC[As](=O)(O)CC(C)C, the survivor count (dose: 100.0 mg/kg/injection, schedule: Q04DX002 (ip), vehicle: saline) is reported as 0 of 6 and 4 of 6, the survivor count (dose: 200.0 mg/kg/injection, schedule: Q04DX002 (ip), vehicle: saline) is reported as 0 of 6 and the survivor count (dose: 400.0 mg/kg/injection, schedule: Q04DX002 (ip), vehicle: saline) is reported as 1 of 6.

In the case of O=C1O/C(=C(/C(=O)O)c2ccc(O)cc2)C(O)=C1c1cc2c3c(c(O)cc(C4=C(O)/C(=C(\C(=O)O)c5ccc(O)cc5)OC4=O)c3c1)OC2=O, the survivor count (dose: 48.0 mg/kg/injection, schedule: Q01DX005 (ip), vehicle: DMSO) is reported as 3 of 6, the survivor count (dose: 82.0 mg/kg/injection, schedule: Q01DX005 (ip), vehicle: DMSO) is reported as 5 of 6 and the survivor count (dose: 96.0 mg/kg/injection, schedule: Q01DX005 (ip), vehicle: DMSO) is reported as 0 of 6.

COC(=O)C1CC(=O)N(C)c2sc(C)c(C)c2C1=O (stereo unspecified) was tested, and the survivor count (dose: 400.0 mg/kg/injection, schedule: Q04DX003 (ip), vehicle: saline with Tween-80) was 5 of 6.
